Experimental data reported in PubChem BioAssay AID624297 (National Center for Advancing Translational Sciences (NCATS), 2012).
Hit rate of the full screen: of about 340,000 compounds, about 6,200 (1.8%) were called active. The shares of active, inactive and inconclusive entries below differ from those in the screen. The call rests on the fitted dose curve; in most records, active means well fitted activation curve with a large enough effect; inconclusive means small, poorly fitted or top-dose-only effect; inactive means no such curve, though single readings can be large or run the other way. Where the call is inconclusive, the potency comes from a doubtful curve fit.

Test: A quantitative high throughput screen for small molecules that induce DNA re-replication in SW480 colon adenocarcinoma cells. Further: nearly all actives have a fitted effect of over 55% in size.
Conditions: Hoechst DNA content imaging, 48 h; series mostly up to 46.1 µM
How it was run: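 Quantitative HTS format with DMSO vehicle controls; 48 hr drug incubation at 37 C, then 40 min Hoechst staining and scanning imager measurement at 405 nm excitation.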
Potency means the concentration at half of the fitted maximal effect.

**Q.** Which Potency does the source give for `Cc1ccc(Nc2cc(C)nc3c(C)ccc([N+](=O)[O-])c23)cc1` here?
**A.** The Potency was inconclusive: 20.6 µM [activator, single point].

**Q.** With `CCOC(=O)C1CCCN(c2cc(=O)n(C3CCCCC3)c(=O)[nH]2)C1` (configuration not stated) as the compound, how does the Potency read?
**A.** The Potency was inconclusive: 0.58 µM [activator, partial curve, poor fit].

**Q.** For `CCN(CC(=O)Nc1ccccc1OC)C(=O)CSCC(=O)Nc1cccc(C)c1`, which Potency is on record?
**A.** The Potency was inconclusive: 6.51 µM [activator, partial curve, poor fit].

**Q.** For `Cc1ccc2c(C)c(C(=O)N3CCN(C4CCS(=O)(=O)C4)CC3)oc2c1C` (configuration not stated), which Potency is on record?
**A.** Its Potency is inconclusive: 29.1 µM [activator, single point].

**Q.** With `Cc1cccc(C2(c3cccc(C)c3)CC2C(=O)Nc2ccc([N+](=O)[O-])cc2O)c1` (configuration not stated) as the compound, how does the Potency read?
**A.** The Potency was inconclusive: 31.6 µM [activator, single point].

**Q.** With `Oc1ccc(N=Cc2ccc(OCc3ccccc3)cc2)cc1` as the compound, how does the Potency read?
**A.** The Potency was inconclusive: 20.6 µM [activator, single point].

**Q.** With `Cc1ccc(C)c(-c2nnc(NC(=O)CCS(=O)(=O)c3ccccc3)o2)c1` as the compound, how does the Potency read?
**A.** The Potency was “inactive”.

**Q.** Which Potency does the source give for `COc1ccc(NC(=O)CN2C(=O)C(C)Oc3ccc(C)cc32)cc1` (configuration not stated) here?
**A.** Its Potency is inconclusive: 20.6 µM [activator, single point].

**Q.** With `CCCC(O)(c1ccc(Br)cc1)C(CN1CCOCC1)c1ccc(Cl)cc1` (configuration not stated) as the compound, how does the Potency read?
**A.** The Potency was inconclusive: 25.9 µM [activator, single point].

**Q.** For `Cc1ccc(CN2CCSc3ccc(C(=O)NCC4CCCO4)cc32)cc1` (configuration not stated), which Potency is on record?
**A.** Its Potency is “inactive”.

**Q.** For `O=C(NNC(=O)C1[C@H]2CCCC[C@@H]12)c1ccc(=O)oc1` (some centres not stated), which Potency is on record?
**A.** Its Potency is active: 2.31 µM.

**Q.** For `Cc1cc2c(cc(C(=O)OCC(=O)NCc3ccco3)n2C)s1`, which Potency is on record?
**A.** Its Potency is active: 10.3 µM.

**Q.** With `COC(C(=O)Nc1ccnn1C1CCN(Cc2cccc(C)n2)CC1)c1ccccc1` (configuration not stated) as the compound, how does the Potency read?
**A.** The Potency was inconclusive: 0.116 µM [activator, full curve, poor fit].

**Q.** With `COc1cccc(NC(=O)c2cccc(N3C(=O)C4C5C=CC(C5)C4C3=O)c2)c1` (configuration not stated) as the compound, how does the Potency read?
**A.** Its Potency is inconclusive: 0.184 µM [activator, full curve, poor fit].

**Q.** With `CCOC(=O)c1nc(N)c(C(=O)OCC)[nH]1` as the compound, how does the Potency read?
**A.** The Potency was inconclusive: 29.1 µM [activator, single point].

**Q.** Which Potency does the source give for `CCCCn1c(SCC(=O)Nc2ccc(OC)cc2)nc2ccc(N3CCOCC3)cc2c1=O` here?
**A.** The Potency was “inactive”.

**Q.** For `CCN(CCO)Cc1cn[nH]c1-c1ccc(C)c(C)c1`, which Potency is on record?
**A.** Its Potency is “inactive”.

**Q.** Which Potency does the source give for `O=S1(=O)C=C(Sc2nnc(-c3ccccc3)o2)c2ccccc21` here?
**A.** The Potency was active: 0.58 µM.

**Q.** Which Potency does the source give for `Cc1onc(C(=O)NN)c1C(=O)N1CCN(C(c2ccccc2)c2ccccc2)CC1` here?
**A.** The Potency was inconclusive: 29.1 µM [activator, single point].

**Q.** Which Potency does the source give for `CC(=O)c1ccc2c3c(cccc13)C(=O)N(CCc1ccccc1)C2=O` here?
**A.** The Potency was inconclusive: 6.51 µM [activator, single point].

**Q.** Which Potency does the source give for `COCC(=O)N(CCc1ccccc1)Cc1cc2cc(C)ccc2nc1Cl` here?
**A.** The Potency was inconclusive: 7.31 µM [activator, partial curve, poor fit].

**Q.** With `O=S(=O)(c1ccc2c(c1)OCCO2)N1CCN(c2ncnc3sccc23)CC1` as the compound, how does the Potency read?
**A.** Its Potency is inconclusive: 29.1 µM [activator, single point].

**Q.** Which Potency does the source give for `N#Cc1cc([N+](=O)[O-])ccc1Oc1cccc(/C=N/NC(=O)c2cccc(Cl)c2)c1` here?
**A.** Its Potency is inconclusive: 16.4 µM [activator, single point].

**Q.** With `CC(C)NC(=O)CCN1C(=O)c2ccccc2Sc2ncccc21` as the compound, how does the Potency read?
**A.** The Potency was inconclusive: 23.1 µM [activator, partial curve, poor fit].

**Q.** For `COc1cc(/C=N\Nc2cc(=O)n(C)c(=O)n2C)ccc1O`, which Potency is on record?
**A.** The Potency was inconclusive: 0.259 µM [activator, partial curve, poor fit].

**Q.** Which Potency does the source give for `O=C(c1ccco1)N1N=C(c2ccc(Br)cc2)CC1(O)C(F)(F)F` (configuration not stated) here?
**A.** The Potency was “inactive”.

**Q.** For `OCCOCCn1c(C(CO)Nc2nc(-c3cccc(Br)c3)cs2)nc2ccccc21` (configuration not stated), which Potency is on record?
**A.** The Potency was “inactive”.

**Q.** Which Potency does the source give for `COc1ccc(NC2CCCN(C(=O)c3ccc(C(C)=O)s3)C2)cc1` (configuration not stated) here?
**A.** Its Potency is inconclusive: 1.84 µM [activator, full curve, poor fit].

**Q.** For `CCCOC(=O)C1=C(C)NC(=O)NC1c1cc2c(cc1Br)OCO2` (configuration not stated), which Potency is on record?
**A.** Its Potency is “inactive”.

**Q.** With `CC(=O)Nc1ccc(NC(=O)CN(c2cc(Cl)ccc2Cl)S(C)(=O)=O)cc1` as the compound, how does the Potency read?
**A.** The Potency was inconclusive: 2.31 µM [activator, full curve, poor fit].

**Q.** With `CCOC(=O)c1sc2nc(C)nc(NCc3ccccc3)c2c1C` as the compound, how does the Potency read?
**A.** The Potency was “inactive”.

**Q.** With `CC[N+]1(C)CCC(O)(/C=C/c2ccccc2)C(C(=O)/C=C/c2ccccc2)C1` (configuration not stated) as the compound, how does the Potency read?
**A.** The Potency was active: 20.6 µM.

**Q.** With `CC1CCN(C(=O)COC(=O)c2ccc([N+](=O)[O-])o2)CC1` as the compound, how does the Potency read?
**A.** Its Potency is active: 20.6 µM.

**Q.** For `Cc1ccc2cccc(NS(=O)(=O)c3ccccc3)c2n1`, which Potency is on record?
**A.** The Potency was inconclusive: 14.6 µM [activator, single point].

**Q.** For `O=C(Nc1ccon1)C1CCN(S(=O)(=O)c2cccs2)CC1`, which Potency is on record?
**A.** The Potency was inconclusive: 18.4 µM [activator, single point].

**Q.** Which Potency does the source give for `COc1ccc(CNc2ncnc3cc(Cl)ccc23)cc1` here?
**A.** Its Potency is “inactive”.

**Q.** For `O=C(O)c1ccc(/C=C/c2nc3ccccc3c(=O)[nH]2)cc1`, which Potency is on record?
**A.** Its Potency is inconclusive: 2.31 µM [activator, partial curve].

**Q.** Which Potency does the source give for `CCCn1c(SCC(=O)NCc2ccco2)nnc1-c1ccncc1` here?
**A.** Its Potency is inconclusive: 10.3 µM [activator, partial curve].

**Q.** With `c1ccc(-c2cc(-c3ccncc3)nc3ccc4ccccc4c23)cc1` as the compound, how does the Potency read?
**A.** Its Potency is inconclusive: 18.4 µM [activator, single point].

**Q.** Which Potency does the source give for `Nc1ccc(/C=C/C(=O)c2cccs2)cc1` here?
**A.** The Potency was inconclusive: 23.1 µM [activator, single point].

**Q.** For `O=[N+]([O-])c1ccc(O)c(-c2nn[nH]n2)c1`, which Potency is on record?
**A.** The Potency was “inactive”.

**Q.** Which Potency does the source give for `O=C(COc1ccc(F)cc1)N/N=C/c1cccc2cccnc12` here?
**A.** Its Potency is inconclusive: 5.17 µM [activator, partial curve].

**Q.** With `O=C(c1ccc(C(F)(F)F)cc1)N1CCC(=O)N(C(COCc2ccc(C(F)(F)F)cc2)Cc2ccccc2)CC1` (configuration not stated) as the compound, how does the Potency read?
**A.** Its Potency is inconclusive: 23.1 µM [activator, single point].

**Q.** Which Potency does the source give for `Cc1ccccc1Cn1c2ccccc2c2cnn(CC(=O)NCc3ccco3)c(=O)c21` here?
**A.** Its Potency is inconclusive: 5.8 µM [activator, full curve, poor fit].

**Q.** With `O=C(NCc1ccc(Cl)cc1)C1CCN(S(=O)(=O)c2cccnc2)CC1` as the compound, how does the Potency read?
**A.** The Potency was “inactive”.

**Q.** Which Potency does the source give for `O=C(NNS(=O)(=O)c1ccccc1)c1cnn(-c2ccc(Cl)cc2)c1C(F)(F)F` here?
**A.** Its Potency is inconclusive: 1.3 µM [activator, full curve, poor fit].

**Q.** With `CCCCNC(=O)C1(N2C(=O)c3ccccc3C2=O)CCCC1` as the compound, how does the Potency read?
**A.** The Potency was inconclusive: 29.1 µM [activator, single point].

**Q.** For `COC(=O)c1ccc(-c2ccco2)n1Cc1nc(-c2ccc(OC)c(OC)c2)oc1C`, which Potency is on record?
**A.** The Potency was “inactive”.

**Q.** With `COc1cc(Cl)cc2c1Sc1ccccc1/C2=C/CCN(C)C` as the compound, how does the Potency read?
**A.** The Potency was inconclusive: 18.4 µM [activator, single point].

**Q.** Which Potency does the source give for `COc1ccc(C=O)cc1Cn1c(C)cc(C)c(C#N)c1=O` here?
**A.** Its Potency is inconclusive: 18.4 µM [activator, single point].

**Q.** For `Cc1[nH]n2c(=O)cc(C(C)(C)C)nc2c1-c1ccccc1`, which Potency is on record?
**A.** The Potency was inconclusive: 16.4 µM [activator, single point].

**Q.** Which Potency does the source give for `Cc1cc(=O)oc2cc(OCC(=O)c3ccccc3)ccc12` here?
**A.** Its Potency is “inactive”.

**Q.** With `CCOc1ccccc1N1CCN(C(=O)NCc2ccc(F)cc2)CC1` as the compound, how does the Potency read?
**A.** The Potency was inconclusive: 0.231 µM [activator, full curve, poor fit].

**Q.** With `O=C(c1ccc([N+](=O)[O-])cc1[N+](=O)[O-])N1CCN(C(=O)C2CCCO2)CC1` (configuration not stated) as the compound, how does the Potency read?
**A.** The Potency was inconclusive: 0.231 µM [activator, full curve, poor fit].

**Q.** Which Potency does the source give for `O=C(/C=C/c1ccco1)NC(=S)Nc1cccc(-c2nc3ccccc3s2)c1` here?
**A.** The Potency was inconclusive: 18.4 µM [activator, single point].

**Q.** With `CC(NC(=O)C1CCCN(S(=O)(=O)c2cccc3nonc23)C1)c1ccccc1` (configuration not stated) as the compound, how does the Potency read?
**A.** The Potency was inconclusive: 18.4 µM [activator, single point].

**Q.** With `Nc1cccc(P(=O)(c2ccccc2)c2ccccc2)c1` as the compound, how does the Potency read?
**A.** The Potency was inconclusive: 23.1 µM [activator, single point].

**Q.** Which Potency does the source give for `CSc1nc(SC(C)C(=O)O)c2c3c(sc2n1)COC(C)(C)C3` (configuration not stated) here?
**A.** The Potency was “inactive”.

**Q.** For `O=C1C=C(C2CCCCC2)C(=O)c2ccccc21`, which Potency is on record?
**A.** The Potency was inconclusive: 29.1 µM [activator, single point].

**Q.** For `CCCCNc1c2c(nc3c(-c4ccccc4)c(C)nn13)CCC2`, which Potency is on record?
**A.** The Potency was “inactive”.

**Q.** With `O=C(Nc1ccc(C2CC2(Cl)Cl)cc1)c1cccc([N+](=O)[O-])c1` (configuration not stated) as the compound, how does the Potency read?
**A.** The Potency was “inactive”.

**Q.** With `Cc1cc[n+](C(C)C(=O)c2ccc(Cl)cc2)cc1` (configuration not stated) as the compound, how does the Potency read?
**A.** The Potency was “inactive”.

**Q.** For `Cc1cc2cc(C(c3nnnn3C3CCCC3)N(Cc3cccnc3)Cc3ccco3)c(=O)[nH]c2cc1C` (configuration not stated), which Potency is on record?
**A.** Its Potency is inconclusive: 20.6 µM [activator, single point].

**Q.** With `COc1ccc(NC(=O)CSCC(=O)Nc2ccc(C)c(S(=O)(=O)N3CCCCCC3)c2)cc1` as the compound, how does the Potency read?
**A.** Its Potency is “inactive”.

**Q.** For `Cc1ccc2nc(CCl)[n+]([O-])c(-c3ccccc3)c2c1`, which Potency is on record?
**A.** Its Potency is inconclusive: 29.1 µM [activator, single point].

**Q.** Which Potency does the source give for `CCO[C@H]1OC(C(=O)N2CCOCC2)=C[C@@H](C)[C@@H]1CCCO` here?
**A.** Its Potency is inconclusive: 32.6 µM [activator, single point].

**Q.** Which Potency does the source give for `CN1C(=O)[C@@H]2C[C@@]3([C@@]45C[C@H]6C(=O)N(C)[C@@H](Cc7ccccc7)C(=O)N6[C@@H]4Nc4ccccc45)c4ccccc4N[C@H]3N2C(=O)[C@@H]1Cc1ccccc1` here?
**A.** Its Potency is inconclusive: 6.51 µM [activator, partial curve, poor fit].
